Structures can show the parent of a compound that is named as a salt.

The text below walks through data of patent US11759445B2, “Use of Rivastigmine in preparation of anti-radiation medicament” (priority 2020, dated 2023).

The subject of one assay is crypt stem cells Lgr5+. The assay can be described thus: In vitro medicament screening experiment on crypt stem cells Lgr5+ of mice (GFP fluorescence after 10 Gy irradiation). The conditions noted are these: Mus musculus, light or radiation study, 240 h, 10 μM medicament, GFP fluorescence 10 d after irradiation, read-out: increment of the Lgr5+ stem cells compared with IR groups. In kind it is cell-based. An excerpt:
1.2.1 In Vitro Medicament Screening Experiment on Crypt Stem Cells Lgr5^+ of Mice
1) Lgr5-GFP mice were sacrificed by cervical dislocation, and enterocoelia was opened and the whole small intestine was taken out, and then the small intestine was put to a pre-cooled HBSS buffer solution to remove mesentery and adipose tissues as much as possible, and dissected longitudinally to wash out contents of the small intestine.
2) Villi and contents inside the intestinal cavity were scraped by a glass slide, and then the remaining intestinal cavity was washed for once to twice.
3) The whole small intestine was quickly cut into 5 mm intestinal segments. […]
15) The 96-well plate was put on a multi-mode microplate reader to read fluorescence intensity under the conditions of excitation wavelength at 485 nm and emission wavelength at 528 nm, and to record the values on the same day.
16) Crypt cells were irradiated with 10 Gy radiation, and the fluorescence intensity for consecutive 10 d after irradiation was recorded; afterwards, the background fluorescence intensity of a blank control was removed, and a fluorescence intensity curve was drawn; and the test results were shown in FIGS. 1-4.
Crypt stem cells Lgr5^+ separated from Lgr5-GFP mice in vivo carried GFP fluorescence, and the change of the mean fluorescence intensity (MFI) represented the proliferation of crypt stem cells Lgr5*. […]

The subject of a further assay is C57BL/6 mice. In words: Survival of mice at a lethal dose (10 Gy whole body irradiation) after intraperitoneal medicament. In kind it is in vivo, mouse. An excerpt: 1.2.2 Experiment for Verifying the Survival Rate of Mice at a Lethal Dose
Mice were subjected to 10 Gy whole body irradiation with an X-ray biological irradiator in Department of Medicine having a dose rate of 1.5 Gy/min; and before irradiation, mice were intraperitoneally injected the medicament screened out via an in vitro experiment, and then continuously raised in a temporary storage room of the animal center after irradiation.
4 to 6 week-age C57BL/6 mice were selected as experimental subjects, and divided into control groups and experimental groups, and subjected to 10 Gy whole body irradiation with a dose rate of 1.5 Gy/min; mice in the experimental subjects were respectively intraperitoneally injected the medicaments screened half an hour before irradiation, and the survival time was recorded after irradiation. Among the medicaments, water-soluble Don-H, Pra-C and DL-Pan are dissolved by normal saline, and others were dissolved by 5 g/100 mL DMSO+edible oil. The medicament was prepared into a stock solution having a corresponding concentration according to the volume that 20 g mice were intraperitoneally injected 100 μL medicament.

As to `COc1cc2c(cc1OC)C(=O)C(CC1CCN(Cc3ccccc3)CC1)C2` (stereo not drawn) [Donepezil HCl], the fold induction at 10 µM in the assay on crypt stem cells Lgr5+ is 6.2. Moreover, the “survival time of the mice” value in the assay on C57BL/6 mice (3 mg/kg i.p. half an hour before 10 Gy whole body irradiation) and in the assay on C57BL/6 mice (6 mg/kg i.p. half an hour before 10 Gy whole body irradiation) was “did not improve the survival time” in each case.
